Some of the results follow. These are further read-outs of the screen, such as a control signal, another cell line or another target. No call is given for them. Most of these compounds were active or inconclusive in the main read-out, so they are no random draw. Words in brackets tell the shape of the fitted curve; partial curves, single points and poor fits give uncertain potencies.
Test: qHTS Assay for Lipid Storage Modulators in Drosophila S3 Cells;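 on cell number change: cells counted by Cell Tracker Red CMTPX staining in the red channel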
Conditions: BODIPY lipid droplet fluorescence, 18-24 h; for cell number change: measured here: cell count max response, cells fed with added oleic acid
Summary of the method: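 Drosophila S3 cells got compounds at several concentrations plus oleic acid (400 uM solution). Laser-scanning cytometry with 488 nm excitation read lipid droplets at 500-530 nm and cells at 575-640 nm. Percent activity was relative to 20 uM Triacsin C.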

[1] = measured here: lipid fluorescence (Fed channel) AC50, cells fed with added oleic acid
[2] = measured here: cell number channel AC50, cells fed with added oleic acid

Compound | cell number change [%] | AC50 [1] | AC50 [2]
O=C(NNC(=O)c1cc(OCC(F)(F)F)ccc1OCC(F)(F)F)c1cccc(C(F)(F)F)c1 | 47.7 | 5.8 µM [falling, single point] | –
Cc1cc(C)nc(SCc2nnc(SCC(=O)Nc3ccc(C)c(C)c3)o2)n1 | 17.9 | 23.1 µM [rising, single point] | –
COc1ccc(O)c(/C=C(\C#N)C(=O)Nc2ccccn2)c1 | -8.33 | 0.13 µM [falling, full curve, poor fit] | –
CCOC(=O)[C@@H]1[C@H]2COc3ccccc3[C@H]2N2C(=O)N(c3ccc(OC)cc3)C(=O)[C@]12C | 0.299 | 29.1 µM [falling, single point] | –
O=C(CCNC(=O)c1ccco1)Nc1ccccc1 | -6.67 | – | –
O=C(CCN1CCN(C/C=C/c2ccccc2)CC1)Nc1ccccc1Cl | – | – | 5.17 µM [rising, partial curve]
O=C(O)COc1ccccc1C1C2C(=O)N(c3ccc(F)cc3)C(=O)C2ON1c1ccccc1 (stereo not drawn) | -18.7 | 7.31 µM [falling, partial curve] | –
CC1(C)Oc2ccc3ccc(=O)oc3c2C[C@H]1O | -32.4 | 14.6 µM [falling, partial curve, poor fit] | 25.9 µM [falling, partial curve]
Fc1cccc(C2NC(=S)NC3=C2N2CCC3CC2)c1 (stereo not drawn) | -6.83 | – | 2.31 µM [rising, single point]
Cc1cccc2c1N(C(=O)CN1C(=O)c3ccccc3C1=O)C(C)(C)c1ssc(=S)c1-2 | -52.7 | 2.59 µM [falling, full curve] | 3.66 µM [falling, full curve, poor fit]
CCc1ccc2c(c1)/C(=C/C(=O)c1cccs1)C(=O)N2 | -91.1 | – | 29.1 µM [falling, single point]
O=C(NNC(=O)C1CC=CCC1)c1ccccc1Cl (stereo not drawn) | 1.65 | 2.91 µM [rising, full curve] | –
Cc1onc(-c2c(F)cccc2Cl)c1C(=O)ONC(=O)c1ccco1 | 20.7 | 0.00411 µM [falling, full curve, poor fit] | –
CCOC(=O)C1CCN(C(=O)CSc2ccccc2Cl)CC1 | 18.5 | 0.00461 µM [falling, full curve, poor fit] | 0.00461 µM [falling, full curve, poor fit]
Cc1ccc(N2CC(C(=O)NCCN3CCOCC3)CC2=O)cc1 (stereo not drawn) | 8.97 | – | –
COc1cc(C(=O)NCCCCCCNC(=O)c2cc(OC)c(OC)c(OC)c2)cc(OC)c1OC | 12.6 | – | –
Cc1occc1C(=O)NNC(=O)COc1ccc(Br)cc1Br | 7.62 | – | 0.0411 µM [rising, full curve, poor fit]
COC1=CC2(O)CCCC2=CC1=O (stereo not drawn) | -1.29 | – | –
O=C1N=C(N2CCN(c3ccccc3)CC2)S/C1=C\c1ccco1 | 80.1 | – | 20.6 µM [rising, partial curve]

Compound | cell number change [%] | AC50 [1] | AC50 [2]
Cc1ccc2nc(NC(=O)C3CCCN(S(=O)(=O)c4cccnc4)C3)sc2c1 (stereo not drawn) | -17.9 | 23.1 µM [falling, single point] | –
C#CCOCCOCCOCCNc1nc(N2CCN(C(=O)CCCCCCCCCCNC(=O)[C@H]([C@@H](C)CC)n3cc(CCCCN=C(N)N)nn3)CC2)nc(N2CCN(C(=O)CCCCCCCCCCNC(=O)[C@H](CCCN=C(N)N)n3cc(C[C@@H](C)CC)nn3)CC2)n1 | -91.9 | 2.59 µM [falling, single point] | 16.4 µM [falling, partial curve, poor fit]
CCCCc1c(O)nc2sc3cc(OC)ccc3n2c1=O | – | 10.3 µM [falling, partial curve] | –
O=[N+]([O-])c1ccc(-c2nc(Nc3cccc(O)c3)c3ccccc3n2)cc1 | -24.3 | 29.1 µM [falling, single point] | –
Cc1ccc(C2=Nc3c(ccc4ccccc34)C(c3ccncc3)=NN2)cc1 | -65 | 20.6 µM [falling, partial curve] | 20.6 µM [falling, single point]
CCC(=O)Nc1cccc(-c2nc3ccccc3c(=O)o2)c1 | 48.9 | 0.731 µM [rising, single point] | 29.1 µM [rising, single point]
Cc1cccc(-c2noc(CN(C(=O)CCc3ccccc3)C(C)C)n2)c1 | -6.16 | 10.3 µM [rising, single point] | –
C=CCOC(=O)C(C#N)c1nc2ccccc2nc1N1CCN(Cc2ccc3c(c2)OCO3)CC1 (stereo not drawn) | 27.4 | – | 0.164 µM [rising, full curve, poor fit]
COc1ccc2[nH]c(=O)c(CN(C(=O)C3CCCO3)c3ccc(C)c(C)c3)cc2c1 (stereo not drawn) | -2.46 | 0.092 µM [falling, full curve, poor fit] | –
CC(=O)NC(=S)Nc1ccccc1N1CCCCC1 | -22.8 | 1.64 µM [falling, partial curve, poor fit] | 4.11 µM [falling, full curve, poor fit]
NC(=O)C1CCN(C2CC(=O)NC2=O)CC1 (stereo not drawn) | 7.91 | 18.4 µM [rising, single point] | –
CCC(=O)N1N=C(c2ccccc2)CC1c1ccc([N+](=O)[O-])cc1 (stereo not drawn) | -2.36 | 1.3 µM [rising, full curve, poor fit] | –
CCCN1C(=O)c2cc(C(=O)Nc3ccccc3CC)ccc2C1O (stereo not drawn) | 9.74 | 3.66 µM [rising, single point] | –
O=C(CCCCCn1c(=S)[nH]c2ccc(N3CCOCC3)cc2c1=O)NCc1ccccc1Cl | -17.5 | – | –
CNC(C)C#Cc1c(-c2cc(OC)c(OC)c(OC)c2)noc1C (stereo not drawn) | 40.8 | – | 29.1 µM [rising, single point]
Cc1ccc(NC(=O)COC(=O)C2CC3CCCC(C2)C3=O)c([N+](=O)[O-])c1 (stereo not drawn) | -14.2 | 0.0731 µM [falling, full curve, poor fit] | –
CC(=O)Nc1ccc(S(=O)(=O)N2CCC(C(=O)O)CC2)cc1 | 37.9 | – | 29.1 µM [rising, single point]
CN(C)CCNC(=O)C(=O)c1c(-c2ccccc2)cc2ccccn12 | -97.3 | 29.1 µM [falling, partial curve, poor fit] | 29.1 µM [falling, partial curve, poor fit]
CC(C)(C)N1CC2([N+](=O)[O-])CN(C(C)(C)C)CC([N+](=O)[O-])(C1)C2 | -32.6 | 1.64 µM [falling, partial curve, poor fit] | 0.92 µM [falling, full curve, poor fit]

Individual results from the list.
Entry of `O=C(CCNC(=O)c1ccco1)Nc1ccccc1` under cell number change [%]: -6.67
Entry of `CCOC(=O)[C@@H]1[C@H]2COc3ccccc3[C@H]2N2C(=O)N(c3ccc(OC)cc3)C(=O)[C@]12C` under AC50 [1]: 29.1 µM [falling, single point]

Next part:

Compound | cell number change [%] | AC50 [1] | AC50 [2]
Cc1sc2nc(SCCN(C)C)n(-c3ccccc3)c(=O)c2c1-c1ccc(F)cc1 | 39 | 29.1 µM [rising, single point] | 14.6 µM [rising, partial curve, poor fit]
COc1ccccc1CCn1c(N)c(C#N)c2nc3ccccc3nc21 | – | 1.46 µM [rising, partial curve] | –
COc1cc(/C=N/NC(=O)c2ccncc2)ccc1OCc1cnc(Cl)s1 | 8.6 | – | 1.64 µM [falling, single point]
C=CCS(=O)(=O)N1CCCC(Cc2ccccc2C)(C(=O)OCC)C1 (stereo not drawn) | -1.48 | – | –
Cc1cc(NC(=O)c2ccc(Cl)cc2)no1 | -2.68 | 13 µM [falling, single point] | –
CCOC(=O)c1sc2ncn(/N=C/c3ccccn3)c(=O)c2c1C | 74.5 | 0.326 µM [rising, partial curve] | 0.731 µM [rising, full curve]
COc1ccc(/C=C/c2c(-c3ccc(OC)cc3)sc3ccc(N4CCOCC4)cc23)cc1 | 12.6 | 25.9 µM [rising, single point] | –
O=C(CSc1ccc(F)cc1)NCCc1ccc(Cl)cc1 | 35.9 | 0.731 µM [rising, partial curve, poor fit] | 1.46 µM [rising, full curve, poor fit]
CCOC(=O)CN1C(=O)C(Sc2n[nH]c(-c3ccc(O)cc3)n2)CCc2ccccc21 (stereo not drawn) | – | 6.51 µM [rising, single point] | –
O=C(/C=C/c1ccccc1)OCCN=C1NS(=O)(=O)c2ccccc21 | -3.95 | 5.62 µM [falling, single point] | –
CCOc1ccc2nc(-c3ccccc3)nc(SCC(=O)OC)c2c1 | -14.2 | – | –
Cc1ccc(CNC(=O)CSc2n[nH]c(N)n2)cc1 | 71 | 16.4 µM [rising, partial curve] | 14.6 µM [rising, partial curve]
CC(=O)COc1cc(C)cc2oc(=O)cc(-c3ccccc3)c12 | 38.2 | – | 13 µM [rising, partial curve, poor fit]
O=C(CN1CCN(c2ccccn2)CC1)Nc1cccc(Br)c1 | -58.1 | – | 29.1 µM [falling, single point]
Cc1ccccc1OCC(=O)Nc1nnc(-c2ccco2)s1 | -18 | 0.13 µM [falling, full curve, poor fit] | –
COc1ccc(/C=C2\N=C(SC)N(c3ccccc3OC)C2=O)cc1 | 11.5 | – | –
O=C(N/N=C/c1cccnc1)c1cccc(NC(=O)c2ccc(Cl)cc2)c1 | 1.74 | 6.51 µM [rising, partial curve, poor fit] | –
COc1cc(C2C(C#N)=C(N)OC3=C2C(=O)CC(C)(C)C3)ccc1OCCN1CCOCC1 (stereo not drawn) | 18.5 | 11.6 µM [rising, single point] | –

— PubChem BioAssay AID2685 (National Center for Advancing Translational Sciences (NCATS), 2010)
